At least one compound was matched to its structure with a doubt left.
How the values were obtained:
[1] = test system: human hemoglobin; experiment: Inter-subunit cross-linking of hemoglobin by SDS-polyacrylamide gel electrophoresis; assay type: biochemical; settings: 0.3 mM hemoglobin, pH 7.4, 37° C., four hours
Procedure: Solutions (2 mL) of 4,4'stilbene dicarboxylic acid bis(methyl phosphate) at concentrations of 0.3 mM, 3.0 mM, 30 mM, and 300 mM were prepared in 0.100M tris-HCL buffer pH 7.4. A control solution containing only the buffer was prepared. To each of these freshly prepared solutions, 40 mg of human hemoglobin (Sigma Chemical Company) was added so that the resulting solution was 0.3 mM in hemoglobin. The reaction mixtures were than stirred vigorously and incubated at 37° C. After four hours the solutions were dialyzed against 0.100M sodium phosphate buffer, pH 7.0, for 20 hours at 4° C. to remove the unreacted acyl phosphates. The samples were then lyophilized and analyzed by SDS-polyacrylamide gel electrophoresis to assess the extent of intersubunit cross-linking (Weber, K; Osborn, M.; J. Biol. Chem. 1969, 244, 4406). Prior to electrophoresis, the hemoglobin samples, cross-linked bovine hemoglobin standard (Sigma Dalton Mark VII-L doubly crystallized, dialyzed, lyophilized), and molecular weight standards were denatured by boiling for 15 min. in 0.11M sodium phosphate buffer, pH 7.0, which contained 1% sodium dodecyl sulfate, 1% 2-mercaptoethanol, 36% urea, and 0.015% bromphenol blue. The final protein concentrations were 2 mg/mL and 10 to 20 μL aliquots were loaded on the gel. The process was conducted using a Bio-Rad Mini-Protean II dual slab cell apparatus. […]

[2] = test system: hemoglobin; settings: literature (Ueno et al.); cited from earlier work

In the case of COP(=O)(O)OC(C)=O [methyl acetyl phosphate, Methyl acetyl phosphate, reference compound], the “species produced by reaction with hemoglobin (SDS gel electrophoresis)” value [1] is given as “monomeric” and the “site of acetylation of amino groups in hemoglobin” value [2] is given as “exclusively in the region of the 2-3-diphosphoglycerate binding site in hemoglobin”.
